Test results reported in article PMC7238241, “Lack of Correlation between In Vitro and In Vivo Studies on the Inhibitory Effects of (‒)-Sophoranone on CYP2C9 Is Attributable to Low Oral Absorption and Extensive Plasma Protein Binding of (‒)-Sophoranone” (Pharmaceutics, 2020).

Assay: Bi-directional Caco-2 cell permeability
Format: in vitro ADME
Settings: human, n = 3
Procedure: Caco-2 cell permeability was assessed to predict the oral absorption of SPN. Cell culture and transport studies were performed as previously described. Briefly, for the bi-directional transport studies, the cells were seeded at a density of 1 × 10^5 cells/well, and the cell medium was replaced until they formed confluent monolayers. On the 25th day, the cell monolayers were washed with pre-warmed HBSS buffer. […] Before the experiment, the integrity of the cell monolayers was evaluated by measuring the transepithelial electrical resistance using a Millicell ohmmeter. After 2 h incubation at 37 °C, samples were withdrawn from both sides, respectively. All samples were stored at −80 °C until LC-MS/MS analysis, and all experiments were performed in triplicate.
The apparent permeability coefficient (Papp) was calculated using the following equation. Papp = (Vr/C0) × (1/A) × ([Drug]/t) where, Vr is the volume of medium in the receiver chamber, C0 is the donor compartment concentration at time zero, A is the area of the cell monolayer, t is the treatment time of the drug, and [Drug] is the drug concentration in the receiver chamber.

Compound: CC(C)NCC(O)COc1cccc2ccccc12 (stereo not shown) [propranolol, reference compound]
- Papp A→B at 2 h, 10 µM: 26.8 ± 3.31 ×10⁻⁶ cm/s
